Results taken from PubChem BioAssay AID588497 (NMMLSC, 2011).
The whole screen tested about 360,000 compounds, of which about 780 (0.22%) were called active. This list was built around the results that the source calls inconclusive (neither active nor inactive); the mix of calls is not that of the screen. Cut-off read from the data, not from the text of the source: active = inhibition above about 35% (passing the limit was not always enough); inconclusive = no clear call, values can overlap the other calls.

These compounds were tested on Botulinum neurotoxin type F light chain protease (Clostridium botulinum) (assay: BoNT/F light chain protease inhibitors, primary screen, biochemical, flow cytometry, MLPCN library (AID 588497; note: plate controls were buffer without enzyme for full effect and enzyme alone for no effect)). Details: Multiplex microsphere protease cleavage assay, at 10 µM, active compounds read high.
With Cn1c(SCC(=O)NC2CCCCC2)nnc1-c1ccccn1 the inhibition was inconclusive: 4.2%. In the case of CC(C)CC(NC(=O)C(COCc1ccccc1)NC(=O)OC(C)(C)C)C(=O)NN (stereo not drawn), the inhibition was inactive: 2.5%. For CC(C)NC(=O)COC(=O)c1ccc(O)cc1, the inhibition was inconclusive: -76.3%. COC(=O)C1=C(C)OC(N)=C(C#N)C12C(=O)Nc1ccccc12 (stereo not drawn) was tested, and the inhibition was inactive: -8.9%. Cc1ccc(S(=O)(=O)N2C[C@H]3C(=O)C[C@@H](c4ccccc4)N(S(=O)(=O)c4ccc(C)cc4)[C@H]3C[C@H]2c2cccc(Cl)c2)cc1 was tested, and the inhibition was inactive: -6.5%. For COc1ccc(N2CCN(c3ccc(NC(=O)NN)cc3)CC2)cc1, the inhibition was inconclusive: 6.3%. With O=C(CSc1nccn1-c1ccc(F)cc1)Nc1ccc2c(c1)OCO2 the inhibition was inconclusive: -13.5%. COc1ccccc1NC(=O)C1CC(C)OC1=O (stereo not drawn) was tested, and the inhibition was inconclusive: 5.3%. With CC1CCCC(NC(=O)c2ccc3c(c2)NC(=O)CS3)C1C (stereo not drawn) the inhibition was inactive: -2.2%. For COc1cccc(-n2c(=O)n(Cc3ccccc3)c(=O)c3[nH]cnc32)c1, the inhibition was inconclusive: -186%. COC(=O)Cc1c(O)ccn(Cc2cccc3ccccc23)c1=O was tested, and the inhibition was inactive: 0%. In the case of COc1ccc(-c2n[nH]c(=S)n2-c2ccc(C)cc2C)cc1, the inhibition was inconclusive: 16.8%. In the case of CCCCn1c(N)c(N(Cc2ccccc2OC)C(=O)c2c(CC)noc2C)c(=O)[nH]c1=O, the inhibition was inconclusive: -5.5%. In the case of O=[N+]([O-])c1ccc(OCCCCCN2CCOCC2)cc1, the inhibition was inconclusive: -17.5%. For Cc1cc(-c2nnc(SCC(=O)Nc3ccccc3)n2C)no1, the inhibition was inconclusive: -153%. With Cc1c(/C=N\NC(=O)c2c[nH]c3ccccc23)cnn1C the inhibition was inactive: -1%. For CCC(CC)c1nnc(NS(=O)(=O)Cc2ccccc2)s1, the inhibition was inconclusive: 11.2%. For Cc1noc(C)c1COC(=O)CCOc1ccccc1, the inhibition was inactive: -3.6%. In the case of CCOC(=O)CNC1CC(=O)N(c2ccc(Br)cc2)C1=O (stereo not drawn), the inhibition was inconclusive: 7.4%. For Cc1nc2sc(C(N)=O)c(N)c2c2c1CCCC2, the inhibition was inconclusive: -18.5%. In the case of C(=C\c1ccccn1)/c1cccnc1, the inhibition was inconclusive: -15%. O=C(CSc1nnc(-c2ccc(C(F)(F)F)cn2)s1)c1ccccc1 was tested, and the inhibition was inconclusive: -14.8%. Cc1c(CC(=O)NCCC(=O)O)c(=O)oc2cc3occ(-c4ccccc4)c3cc12 was tested, and the inhibition was inconclusive: 4.1%. CC[n+]1c(/C=C/c2ccc(N(C)C)cc2)ccc2ccccc21 was tested, and the inhibition was inactive: -16%. O=C(NCCCN1CCOCC1)c1cccc(S(=O)(=O)N2CCN(c3ccccc3)CC2)c1 was tested, and the inhibition was inconclusive: -2.9%. CCOc1ccccc1N1CCN(Cc2cc3c(cc2[N+](=O)[O-])OCO3)CC1 was tested, and the inhibition was inconclusive: -69.1%. For COC(=O)c1ccc(OC)c(Cn2c(=O)n(C)c(=O)c3sccc32)c1, the inhibition was inconclusive: 15.2%. In the case of CCCOc1ccc(Oc2nc(-c3ccncc3)nc3ccccc23)cc1, the inhibition was inactive: -9.7%. For CCCC(=O)Nc1ccc(-c2csc(-c3cccnc3)n2)cc1, the inhibition was inconclusive: 8.8%. With COc1cc(NC(=O)c2ccc(C)cc2)ccc1NC(=O)c1cc2ccccc2o1 the inhibition was inconclusive: -19.1%. In the case of COc1ccc(NC(=O)c2ccc3c(c2)OCO3)cc1, the inhibition was inconclusive: 3.2%. CCn1c(SCC(=O)N2c3ccccc3CCc3ccccc32)nnc1-c1ccc(OC)cc1 was tested, and the inhibition was inactive: -3.1%. For COc1cc(OC)c(OC)cc1/C=C1\CCC/C(=C\c2cc(OC)c(OC)cc2OC)C1=O, the inhibition was inconclusive: -4.2%. C=CCn1c(N2CCN(c3ccc(OC)cc3)CC2)nc2c1c(=O)[nH]c(=O)n2C was tested, and the inhibition was inactive: -1.7%. Cn1c(-c2ccccc2)cnc1NCc1ccc(F)cc1 was tested, and the inhibition was inconclusive: -6.8%. COc1ccc(C2NC(=S)NC3=C2N2CCC3CC2)cc1 (stereo not drawn) was tested, and the inhibition was inconclusive: -25.2%. For Cc1c(-c2ccc(Cl)cc2)[n+](=O)c2c(n1[O-])CCCC2, the inhibition was inconclusive: -6.8%. Cc1ccnc(NC(=O)c2cccc(NC(=O)c3ccccc3C)c2)c1 was tested, and the inhibition was inactive: 1.2%. For CC1CN(C(=O)COc2coc(CN3CCc4ccccc4C3)cc2=O)CC(C)O1 (stereo not drawn), the inhibition was inconclusive: 9.6%. In the case of COc1ccccc1Nc1c2ccccc2nc2ccccc12, the inhibition was inconclusive: -13.9%. Cc1ccc(CN(CC(O)COc2cccc3[nH]cc(C)c23)C(C)(C)C)cc1 (stereo not drawn) was tested, and the inhibition was inconclusive: -2.5%. CC(C)(C)OC(=O)NCCC(=O)N/N=C/c1cccc2cccnc12 was tested, and the inhibition was inconclusive: -47.5%. In the case of Clc1ccccc1OCCn1nnc2ccccc21, the inhibition was inconclusive: 2.7%. With Cc1ccc(S(=O)(=O)NN2C(=O)/C(=C/c3ccc(F)cc3)SC2=S)cc1 the inhibition was inconclusive: -14.6%. In the case of N#C/C(=C/c1cccnc1)c1ccccc1, the inhibition was inconclusive: 2.9%. With CCc1cccc(C)c1NC(=S)NCc1ccc2c(c1)cc(C)n2C the inhibition was inactive: -141%. CC(=O)Nc1ccc(C(=O)NNC(=O)c2cccc(C)c2)cc1 was tested, and the inhibition was inconclusive: -17.2%. For O=C1NC(=O)/C(=C/c2ccc(N3CCOCC3)o2)N1, the inhibition was inconclusive: -35.8%. For Cc1ccc(C)c(N2CN(Cc3ccco3)CNC2=S)c1, the inhibition was inactive: 14.7%. With O=C(O)c1ccc(Cl)c(NCc2cccnc2)c1 the inhibition was inconclusive: 30.5%. In the case of Cc1ccc(SCC(=O)OCC(=O)NC2CCCCCCC2)cc1, the inhibition was inconclusive: -14.4%. In the case of Cn1c(SCC(=O)NC2CCCCC2)nnc1-c1cc2ccccc2o1, the inhibition was inconclusive: 15.9%. In the case of CCOC(=O)C1CCN(S(=O)(=O)c2c[nH]c(=O)[nH]c2=O)CC1, the inhibition was inconclusive: 2.8%. COc1ccc(-c2nc3c4ccccc4ccn3c2Cc2ccccc2)cc1OC was tested, and the inhibition was inactive: -9%. CC(=O)c1ccccc1OCc1ccc(C(=O)c2ccccc2)cc1 was tested, and the inhibition was inconclusive: -19.8%. With O=C(NS(=O)(=O)N1CCCC1)C1=C(N2CCCC2)COC1=O the inhibition was inactive: -2%. O=C(NCCCCc1ccccc1)c1cccc(NC(=O)C2CCCC2)c1 was tested, and the inhibition was inactive: 5.3%. In the case of Cc1ccc(NC(=S)N2CCCCC2CO)cc1C (stereo not drawn), the inhibition was inactive: -4.7%. For COc1ccc(N(C(=O)C(C)C)S(=O)(=O)c2ccc(Cl)cc2)cc1, the inhibition was inactive: 2.5%. With CCN(CC)S(=O)(=O)c1ccc(N=Nc2cc(C)cc(Br)c2O)cc1 the inhibition was inconclusive: -46.1%. O=C(Nc1ccccc1OC(F)F)c1ccc(S(=O)(=O)N2CCOCC2)cc1 was tested, and the inhibition was inactive: 1.9%. In the case of Cc1cc(C(=O)NNS(=O)(=O)c2ccccc2C(F)(F)F)nn1C(C)(C)C, the inhibition was inconclusive: -37.3%. In the case of Fc1ccc(-c2ccc(CNCc3ccccn3)o2)cc1, the inhibition was inconclusive: 19.1%. In the case of O=C(CCCl)Nc1nc2c(s1)CCc1ccccc1-2, the inhibition was inconclusive: -3.7%. With OC(CNC1Cc2ccccc2C1)c1ccccc1 (stereo not drawn) the inhibition was active: 35.7%. For COCCCNC(=S)N/N=C/c1ccc(OC)c(Br)c1, the inhibition was inactive: -9.8%. In the case of COc1ccc(N2C(=O)CC(SCc3ccc(Cl)cc3)C2=O)cc1 (stereo not drawn), the inhibition was inconclusive: -15.3%. COc1ccc(S(=O)(=O)N2CCN(C(=O)c3ccc(=O)[nH]n3)CC2)cc1OC was tested, and the inhibition was inactive: -12.5%. With CC(=O)C1=C(c2ccccc2)NC(=O)NC1c1cccs1 (stereo not drawn) the inhibition was inconclusive: 39%. In the case of CC1OC(COCc2ccccc2)Cc2[nH][nH]c(=O)c21 (stereo not drawn), the inhibition was inactive: -2.8%. In the case of O=C(CCl)Nc1sccc1C(=O)c1ccccc1, the inhibition was inconclusive: -34.9%. For COc1ccc(-c2oc3c(c2C(=O)OCCO)C(OCCCO)CCC3)cc1 (stereo not drawn), the inhibition was inactive: -1.4%. O=C(/C=C/c1ccccc1)NCCc1ccccc1 was tested, and the inhibition was inactive: -6%. For CCOC(=O)c1ccc(NC(=O)CCc2c(C)nc3ncnn3c2C)cc1, the inhibition was inconclusive: 6.2%. With CCOC(=O)C1=C(C)NC2=C(C(=O)CC(C)(C)C2)C1c1ccc(N(C)C)cc1 (stereo not drawn) the inhibition was inactive: -6.7%. With N#Cc1ccc(/C=C/C(=O)c2ccccc2)cc1 the inhibition was inconclusive: -16.2%. For CN(C)c1ccc(/C=N/NC(=O)c2ccc3nc[nH]c3c2)cc1, the inhibition was inconclusive: 52.3%. With O=C1/C(=C/c2ccccn2)SC(=S)N1CCc1ccccc1 the inhibition was inconclusive: 21%. For COc1ccccc1CN1CC(C(=O)NCC2(O)CCCCC2)CCC1=O (stereo not drawn), the inhibition was inactive: -2%. CCOc1ccc(NC(=O)c2ccccc2NC(=O)c2cccnc2)cc1 was tested, and the inhibition was inconclusive: -17%. For Cc1cc(C)n(NC(=S)NC2CCCCC2)c(=O)c1C#N, the inhibition was inconclusive: -206%. With CCCCC1C2C(=O)N(c3ccccc3)C(=O)C2ON1c1ccccc1 (stereo not drawn) the inhibition was inconclusive: -49.9%. In the case of Cc1nnc(SCc2ccc(F)cc2)s1, the inhibition was inconclusive: -11.1%. With COc1ccc(N(CC(=O)Nc2ccccc2F)S(=O)(=O)c2ccc(OC)c(OC)c2)cc1 the inhibition was inactive: -2%. In the case of Cc1ccc(C)c(Nc2c(F)c(F)c(F)c(F)c2C(=O)O)c1, the inhibition was inactive: -1.4%. With CSc1nc(-c2ccc(Cl)cc2)nc(N)c1C#N the inhibition was inconclusive: -43.8%. In the case of CNS(=O)(=O)c1cc(Nc2ncnc3sccc23)ccc1C, the inhibition was inconclusive: -17.1%. CC1CCC(NC(=O)CN(C)CC(=O)Nc2ccc(F)cc2)CC1 (stereo not drawn) was tested, and the inhibition was inconclusive: 17.3%. For CN(CC(=O)Nc1cccc(F)c1)C(=O)CCc1nc2cc(S(=O)(=O)N3CCOCC3)ccc2n1C, the inhibition was inconclusive: -7.9%. O=C(C1=NN[C@@H]2C(=O)N(c3cccc(F)c3)C(=O)[C@H]12)c1cnccn1 was tested, and the inhibition was inconclusive: -29.4%. For Nc1nc2c(nc(N3CCCCC3)n2[C@@H]2O[C@H](CO)[C@@H](O)[C@H]2O)c(=O)[nH]1, the inhibition was inconclusive: 25.4%. With CCC(=O)Nc1ccc(NC(=O)CSc2nnnn2Cc2ccccc2)cc1C the inhibition was inactive: 5.4%. For CCCCNc1nc(Nc2ccc(C)c(Cl)c2)c2cnn(C)c2n1, the inhibition was inconclusive: -24.9%.
